Test results from patent publication US20040209850A1, “Methods of treating pain and compositions for use therefor” (TheraQuest Biosciences, LLC, priority 2003, published 2004).

Test system: rat
Test: Tail-flick test: antinociception of albuterol, morphine and morphine plus albuterol (% MPE, A50)
Type: in vivo
Description: The tail flick test was first described by D'Amour and Smith (1941), and remains essentially unchanged in application. (See generally D'Amour, F. E. and Smith, D. L., “A method for determining loss of pain sensation”, J. Pharmacol. Exp. Therap., 72:74-79(1941); Dewey, D. L. and Harris, L. S., The Tail-flick test. In: S. Ehrenpreis and A. Neidle (Eds.), Methods in Narcotic Research, Marcel Dekker, Inc., New York, 1975, pp. 101-109; and Dubner, R. and Ren, K., “Assessing transient and persistent pain in animals.” In: P. D. Wall and R. Melzack (Eds.), Textbook of Pain, Churchill Livingstone, London, 1999, pp. 359-369). Quite simply, the tail of a rat or mouse is exposed to radiant heat, and the latency to withdraw is determined. The basal heat intensity is set so that naive rats withdraw their tails within 2 to 3 sec. A cut-off latency of 10 sec (i.e., 3 to 4 times basal control value) is commonly employed to prevent tissue damage. […]
The tail-flick test is considered to be very robust in that weak analgesic agents are not detected by this test. […]
Baseline refers to the pre-treatment tail-flick latencies, and 8.2 represents the maximal effect. […] The A50 values and confidence intervals for each of the dose-effect curves were determined from linear regression analysis of the logdose-effect curves. […]

CN1CC[C@]23c4c5ccc(O)c4O[C@H]2[C@@H](O)C=C[C@H]3[C@H]1C5 [Morphine]
slope of dose-response curve (30 minutes): 104
slope of dose-response curve (60 minutes): 123
